A short description of this test: qHTS Assay for Lipid Storage Modulators in Drosophila S3 Cells.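 For cell number change: cells counted by Cell Tracker Red CMTPX staining in the red channel.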 The settings on record: BODIPY lipid droplet fluorescence, 18-24 h; for cell number change: measured here: cell count max response, cells fed with added oleic acid. In a few lines: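 Laser-scanning cytometry quantifies lipid droplet accumulation (500–530 nm total intensity; droplet/cell object ratio) in oleic acid-fed (400 uM added) Drosophila S3 cells treated with a concentration series. 20 uM Triacsin C defined 100% inhibition.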

The mark [1] stands for this setting: measured here: lipid fluorescence (Fed channel) AC50, cells fed with added oleic acid.
Where [2] appears, read: measured here: cell number channel AC50, cells fed with added oleic acid.

The list shows a part of the results. These are further read-outs of the screen, such as a control signal, another cell line or another target. No call is given for them. The list favours compounds with an active or inconclusive main result. The note in brackets gives the kind of curve behind each potency; many fits are weak.

As to `Cc1ccc2nc(NCCNC(=O)c3ccccc3)c(C#N)cc2c1`, the cell number change was -7.62%. Moreover, the AC50 under setting [1] was 5.17 µM [falling, partial curve, poor fit].

Regarding `O=C(OCc1ccc(COC(=O)c2ccccn2)cc1)c1ccccn1`, the cell number change was 2.05%.

As to `O=C(Cc1ccc(NC2=NC3CS(=O)(=O)CC3S2)cc1)NCc1ccc(Cl)cc1` (stereo not given), the cell number change is 7.78%.

Take `CC(C)CCN1CC(O)=C(c2nc3ccccc3[nH]2)C1=N`: the cell number change amounted to 56.5%. For the same molecule, under setting [2], the AC50 is 29.1 µM [rising, single point]. Besides, the AC50 under setting [1] was 3.26 µM [falling, partial curve].

For the molecule `COC(=O)C1=C(CS(=O)(=O)c2ccc(C)cc2)NC(=O)NC1c1ccc(OC)c(OC)c1` (stereo not given), the cell number change came to 14.6%. Besides, the AC50 under setting [1] was 0.731 µM [rising, single point].

Turning to `O=C(O)Cc1ccc(Nc2cnn(C34CC5CC(CC(CC(=O)O)(C5)C3)C4)c(=O)c2Cl)cc1`, the cell number change was -36.5%. Also, the AC50 under setting [2] is 0.0259 µM [falling, full curve]. Further, under setting [1], the AC50 was 29.1 µM [falling, single point].

As to `COc1ccc(-c2ccc(SCC(=O)N3CCCC3)nn2)cc1OC`, the cell number change stood at 3.25%. Besides, under setting [2], the AC50 was 2.31 µM [rising, partial curve, poor fit].

Consider `CS(=O)(=O)N(CC(=O)N1CCN(Cc2ccccc2)CC1)c1cccc(F)c1`, for which the cell number change is -15.7%. For the same molecule, the AC50 under setting [1] was 0.206 µM [falling, full curve, poor fit].

For the molecule `CC(=O)Nc1ccc(C(=O)N/C(=C\c2ccccc2)C(=O)Nc2cccc(C(=O)O)c2)cc1`, the cell number change was -11%. Besides, under setting [1], the AC50 was 0.259 µM [falling, partial curve, poor fit].

For `COCCNC(=O)C(C(=O)c1ccc(F)cc1)n1cc(C)ccc1=O` (stereo not given), the cell number change was 8.58%. The AC50 under setting [1] is 6.51 µM [falling, single point].

Take `O=C(CCN1C(=O)C2C3CCC(C3)C2C1=O)Nc1ccccc1C(F)(F)F` (stereo not given): the cell number change was -17.6%. For the same molecule, the AC50 under setting [1] is 32.6 µM [falling, single point].

For `O=C1c2ccccc2-c2onc3ccc(NCCCn4ccnc4)c1c23`, the cell number change is -50.5%. For the same molecule, the AC50 under setting [2] was 29.1 µM [falling, single point]. For the same molecule, the AC50 under setting [1] is 0.58 µM [rising, single point].

With `Nc1ccc2nc3c(=O)n(CCc4ccccc4)c(=O)[nH]c3nc2c1`, the cell number change was -42.8%. Moreover, the AC50 under setting [2] was 29.1 µM [falling, single point]. The AC50 under setting [1] is 29.1 µM [falling, partial curve, poor fit].

Turning to `CSc1ncc(F)c(N(CCO)CCO)n1`, the cell number change was found to be 1.14%. The AC50 under setting [1] was 3.26 µM [falling, single point].

With `COc1ccc(C(=O)CSc2nc3nc(C)cc(C)n3n2)cc1OC`, the cell number change was -3.28%. The AC50 under setting [1] is 0.146 µM [rising, full curve, poor fit].

As to `Cn1c(CCN2CCCCC2)nc2cc(NS(=O)(=O)c3ccccc3)ccc21`, the cell number change is 51.6%. Also, the AC50 under setting [2] is 1.3 µM [rising, full curve]. Moreover, the AC50 under setting [1] was 2.59 µM [rising, full curve].

On to `CCOc1ccc(NC(=S)NC(=O)c2c(Br)cnn2C)c([N+](=O)[O-])c1`, for which the cell number change stood at 16.7%. For the same molecule, under setting [1], the AC50 is 18.4 µM [rising, single point].

In the case of `O=C(Nc1ccc2c(c1)OCO2)C1CC(=O)N(c2ccccc2)C1` (stereo not given), the cell number change came to 7.39%. In addition, under setting [1], the AC50 is 29.1 µM [rising, partial curve].

`O=C(Nc1cccc2ncccc12)c1ccc(F)cc1`: the cell number change was found to be 17.5%. Under setting [2], the AC50 was 6.51 µM [rising, single point]. Moreover, under setting [1], the AC50 is 25.9 µM [rising, single point].

As for `Cc1ccc(/C=N/NC(=O)Cc2ccc(O)cc2)s1`, under setting [1], the AC50 is 0.13 µM [falling, full curve, poor fit].

With `O=C(Nc1ccccc1C(=O)NC1CC1)c1ccc([N+](=O)[O-])o1`, the cell number change was -30.8%. For the same molecule, under setting [2], the AC50 was 1.64 µM [falling, full curve]. For the same molecule, under setting [1], the AC50 was 1.64 µM [falling, partial curve].

Regarding `O=C(N/N=C/c1ccc(N2CCOCC2)o1)c1cccc(C(F)(F)F)c1`, the cell number change is -55.5%. Moreover, under setting [2], the AC50 is 20.6 µM [falling, partial curve]. Under setting [1], the AC50 is 16.4 µM [falling, partial curve].

Consider `Cc1cccc(COc2coc(CN3CCN(C(=O)c4ccco4)CC3)cc2=O)c1`, for which the cell number change is -5.6%. Further, the AC50 under setting [1] is 14.6 µM [falling, single point].

With `O=C(O)c1cccc(N2C(=O)c3cccc4c(Cl)ccc(c34)C2=O)c1`, the cell number change came out at 1.32%. Besides, the AC50 under setting [2] was 7.31 µM [rising, single point].

`Cc1coc2c(O)cc3c(c12)OC1(N2CCCCC2)C(=O)NCCCC31` (stereo not given): the cell number change is -54.1%. Further, the AC50 under setting [2] was 8.2 µM [falling, partial curve]. For the same molecule, the AC50 under setting [1] was 8.2 µM [falling, partial curve].

`CCC(C)(C)NC(=O)C(c1ccc(F)cc1)N(Cc1ccc(OC)cc1)C(=O)c1cnccn1` (stereo not given): the cell number change is -17.5%. In addition, the AC50 under setting [1] was 29.1 µM [falling, single point].

As to `NC(=O)Cc1nc2scc(-c3ccccc3)c2c(=O)[nH]1`, the cell number change is 62.5%. Also, under setting [1], the AC50 is 0.58 µM [rising, full curve, poor fit].

Take `Oc1ccc(Br)cc1C=Nc1ccc2c3c(cccc13)CC2`: the cell number change is -9.87%. Further, the AC50 under setting [1] is 29.1 µM [falling, single point].

Turning to `CCOc1ccc(N2CC(C(=O)Nc3ccc(F)cc3F)CC2=O)cc1` (stereo not given), under setting [1], the AC50 was 0.116 µM [rising, single point].

As for `Cc1nn(C)cc1C(C(=O)NC1CCCCC1)N(C(=O)Cc1cccs1)c1ccc(Cl)cc1` (stereo not given), the cell number change is 51.1%. Further, the AC50 under setting [2] is 29.1 µM [rising, single point].

In the case of `CCn1c(Cc2ccc(OC)cc2)nc2ccccc21`, the cell number change is -0.265%. Further, the AC50 under setting [1] was 29.1 µM [rising, single point].

Take `Nc1[nH]ncc1N=Nc1ccc(Cl)cc1`: the cell number change was 213%. Also, the AC50 under setting [2] was 29.1 µM [rising, single point]. The AC50 under setting [1] is 0.0184 µM [rising, full curve, poor fit].

With `COc1ccc(NC(=O)CN(C)CC(=O)Nc2ccc(Cl)cc2F)cc1`, the cell number change was -10.3%. Further, the AC50 under setting [1] was 0.00461 µM [rising, full curve, poor fit].

As for `CCC(=O)N(Cc1cc2cc(OC)ccc2[nH]c1=O)c1ccc(C)cc1C`, the cell number change is -11.6%. Besides, under setting [1], the AC50 is 1.3 µM [rising, single point].

For `CCOC(=O)c1nn(-c2ccc(F)cc2)c2nc(-c3ccccc3)c(C#N)c(=O)n12`, under setting [1], the AC50 was 1.84 µM [rising, partial curve].

`COc1cc2c(cc1NC(=O)CSc1cccc[n+]1[O-])oc1ccccc12`: the cell number change was -31.6%. The half-maximal activity concentration (AC50) under setting [2] was 5.8 µM [falling, partial curve, poor fit]. In addition, the AC50 under setting [1] is 6.51 µM [falling, single point].

`CC(C)[C@@H](C(=O)N1CCCC1)N1C(=O)N2CCc3c([nH]c4ccccc34)[C@@]2(C)C1=O`: the cell number change was 3.24%. For the same molecule, under setting [1], the AC50 was 29.1 µM [rising, single point].

`Cc1ccc(S(=O)(=O)N(C)C)cc1NC(=O)C(C)Sc1ccccc1` (stereo not given): the cell number change was determined as 25.4%. Also, under setting [2], the AC50 was 0.116 µM [rising, full curve, poor fit].

Turning to `CCOc1ccc(-n2nc3ccc(NC(=O)CC)cc3n2)cc1`, the cell number change was -8.52%. In addition, the AC50 under setting [1] is 2.31 µM [rising, single point].

On to `O=C(CN(C(=O)CCC(=O)Nc1ccccn1)c1ccc2c(c1)OCO2)NCc1ccc(F)cc1`, for which the cell number change was -4.7%.

As for `O=C(O)CCn1cc(/C=C\C(=O)c2ccc(Cl)cc2)c(-c2cccc(Br)c2)n1`, the cell number change is -24.6%. Further, the half-maximal activity concentration (AC50) under setting [1] was 9.2 µM [falling, partial curve].

On to `O=C(Nc1ccncc1)c1ccc(NS(=O)(=O)c2cccc(F)c2)cc1`, for which the cell number change was -18.9%.

As for `Cc1n[nH]c(C)c1S(=O)(=O)N1CCCC(C(=O)Nc2ccc(Br)cc2)C1` (stereo not given), the cell number change was 3.8%.

On to `CCn1c(SCC(=O)N2CCCC2)nnc1-c1ccc(S(=O)(=O)N2CCCCCC2)cc1`, for which the cell number change was -0.0913%. Under setting [2], the AC50 was 0.92 µM [falling, full curve, poor fit]. The AC50 under setting [1] is 0.58 µM [falling, full curve].

With `Cc1ccc(NC(=O)[C@@H]2CCC(=O)N2C2OC(=O)c3ccccc32)cc1Cl` (stereo not given in full), the cell number change was determined as 5.83%. Under setting [1], the AC50 is 2.91 µM [falling, single point].

In the case of `CC1CCCCN1CCCNC(=O)c1nn(C)c2c1CSc1ccccc1-2` (stereo not given), the cell number change amounted to 19.9%.

In the case of `CCOC(=O)c1ccc(NC(=O)c2nccnc2C(=O)O)cc1`, the AC50 under setting [1] was 1.16 µM [rising, single point].

Regarding `O=C(O)C(Cc1ccccc1)N1C(=O)CCC1=O` (stereo not given), the AC50 under setting [1] was 20.6 µM [falling, partial curve].

For the molecule `O=C(CSc1nc2ccccc2n1S(=O)(=O)c1cccc([N+](=O)[O-])c1)NCc1cccs1`, the cell number change stood at 13.9%. For the same molecule, the AC50 under setting [1] is 6.51 µM [rising, single point].

With `COc1ccccc1NC(=O)N1CCN(CCc2ccccc2)CC1`, the cell number change was determined as 26%. Further, the AC50 under setting [1] was 6.51 µM [rising, single point].

As to `COc1ccc(C)cc1Nc1n[n+](-c2ccccc2)c(-c2ccc(NC(C)=O)cc2)s1`, the cell number change is -8.08%.

Consider `Cc1ccccc1C(=O)NC(=S)NC1CC1`, for which the cell number change was determined as 41.4%. For the same molecule, the AC50 under setting [2] was 1.3 µM [rising, full curve, poor fit].

Consider `COc1c(C)cccc1C(=O)Nc1ccc(CN2CCCCC2)cc1`, for which the cell number change stood at 18.6%. For the same molecule, under setting [1], the AC50 is 23.1 µM [rising, single point].

Take `CC(=O)NCCC(=O)Nc1cccc(S(=O)(=O)N(C)c2ccccc2)c1`: the cell number change is 11.7%. Moreover, the AC50 under setting [1] was 16.4 µM [rising, single point].

Turning to `Cc1ccc(C(=O)OCC(=O)Nc2ccc3[nH]c(=O)[nH]c3c2)cc1[N+](=O)[O-]`, the cell number change is -2.24%. Moreover, under setting [1], the AC50 is 0.731 µM [falling, full curve].

For `CC(SC1=Nc2ccccc2C2CC=NN12)C(=O)NC1(C#N)CCCCC1` (stereo not given), the cell number change is -73.8%. Moreover, the AC50 under setting [2] is 2.59 µM [falling, full curve]. In addition, under setting [1], the AC50 is 8.2 µM [falling, partial curve].

In the case of `Cc1[nH]n(C(C)(C)C)c(=O)c1Sc1ccc(Cl)cc1`, the cell number change was -5.05%. In addition, under setting [1], the AC50 was 0.517 µM [rising, single point].

What is called AC50 is the concentration at which the activity in the assay is half-maximal.

The record behind these values is PubChem BioAssay AID2685 (National Center for Advancing Translational Sciences (NCATS), 2010).
